From article PMC8099881
Results are given in words; binding and its absence hold for the method and conditions named. Binding seen in cells or lysates may run through a third protein. Some entries that bind do so weakly or less than the wild type. Sequences can lack the tags named with a protein.

Amino acid sequences for entries named in this document (tags omitted).
UniProt P61073: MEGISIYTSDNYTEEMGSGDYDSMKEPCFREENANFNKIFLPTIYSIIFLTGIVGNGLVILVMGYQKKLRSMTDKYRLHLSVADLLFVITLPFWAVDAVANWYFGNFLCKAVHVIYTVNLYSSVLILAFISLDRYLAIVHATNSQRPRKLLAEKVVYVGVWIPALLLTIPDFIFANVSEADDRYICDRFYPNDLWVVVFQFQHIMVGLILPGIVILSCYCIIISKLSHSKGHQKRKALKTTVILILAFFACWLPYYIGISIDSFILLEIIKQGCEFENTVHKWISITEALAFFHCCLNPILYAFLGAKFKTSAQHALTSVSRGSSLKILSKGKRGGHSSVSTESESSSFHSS

Target: C-X-C chemokine receptor type 4 (CXCR4) (human (endogenous in HUVEC)) (UniProt P61073)
Assay: co-IP; HUVEC membrane proteins (Mem-PER extraction) incubated with or without recombinant GST-SDF4; immunoprecipitated with antibodies against SDF4, GST or CXCR4 at 4 °C for at least 4 h, protein-A/G agarose, washed three times with modified RIPA buffer, western blot; only the binder purified

B1: GST-SDF4 (recombinant stromal-cell-derived factor 4) (protein, UniProt Q9BRK5 37-362)
chain: RPANHSSTRERVANREENEILPPDHLNGVKLEMDGHLNRGFHQEVFLGKDLGGFDEDAEPRRSRRKLMVIFSKVDVNTDRKISAKEMQRWIMEKTAEHFQEAMEESKTHFRAVDPDGDGHVSWDEYKVKFLASKGHSEKEVADAIRLNEELKVDEETQEVLENLKDRWYQADSPPADLLLTEEEFLSFLHPEHSRGMLRFMVKEIVRDLDQDGDKQLSVPEFISLPVGTVENQQGQDIDDNWVKDRKKEFEELIDSNHDGIVTAEELESYMDPMNEYNALNEAKQMIAVADENQNHHLEPEEVLKYSEFFTGSKLVDYARSVHEEF
In the case of B1, the binding is reported as “binds”.
